{"sequences": {"note": "The chains behind the UniProt entries cited, without tags or fusion partners. Where a name states a change or a piece, a line headed by the entry shows the natural chain unless it says otherwise.", "UniProt Q7Z7L7": "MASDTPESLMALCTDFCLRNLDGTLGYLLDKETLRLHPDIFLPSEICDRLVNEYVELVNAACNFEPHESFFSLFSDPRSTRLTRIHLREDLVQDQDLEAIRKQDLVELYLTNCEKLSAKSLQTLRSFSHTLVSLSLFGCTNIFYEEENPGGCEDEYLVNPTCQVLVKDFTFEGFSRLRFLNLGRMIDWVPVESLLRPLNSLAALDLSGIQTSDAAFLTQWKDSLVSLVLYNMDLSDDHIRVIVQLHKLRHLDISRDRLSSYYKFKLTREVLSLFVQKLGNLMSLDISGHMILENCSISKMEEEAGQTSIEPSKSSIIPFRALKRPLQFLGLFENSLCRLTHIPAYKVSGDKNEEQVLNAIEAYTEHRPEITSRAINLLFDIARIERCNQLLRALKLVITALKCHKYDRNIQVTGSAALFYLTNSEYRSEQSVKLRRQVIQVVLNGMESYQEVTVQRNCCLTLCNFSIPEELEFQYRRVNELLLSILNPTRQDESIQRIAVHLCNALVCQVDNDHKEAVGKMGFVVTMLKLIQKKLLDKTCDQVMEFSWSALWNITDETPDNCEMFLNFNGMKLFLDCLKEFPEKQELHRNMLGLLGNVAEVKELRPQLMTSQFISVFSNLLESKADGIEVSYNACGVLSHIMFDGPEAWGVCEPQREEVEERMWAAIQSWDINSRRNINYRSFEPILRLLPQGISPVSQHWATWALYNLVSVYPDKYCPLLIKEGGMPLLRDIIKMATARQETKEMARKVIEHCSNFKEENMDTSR", "UniProt Q9C0D3": "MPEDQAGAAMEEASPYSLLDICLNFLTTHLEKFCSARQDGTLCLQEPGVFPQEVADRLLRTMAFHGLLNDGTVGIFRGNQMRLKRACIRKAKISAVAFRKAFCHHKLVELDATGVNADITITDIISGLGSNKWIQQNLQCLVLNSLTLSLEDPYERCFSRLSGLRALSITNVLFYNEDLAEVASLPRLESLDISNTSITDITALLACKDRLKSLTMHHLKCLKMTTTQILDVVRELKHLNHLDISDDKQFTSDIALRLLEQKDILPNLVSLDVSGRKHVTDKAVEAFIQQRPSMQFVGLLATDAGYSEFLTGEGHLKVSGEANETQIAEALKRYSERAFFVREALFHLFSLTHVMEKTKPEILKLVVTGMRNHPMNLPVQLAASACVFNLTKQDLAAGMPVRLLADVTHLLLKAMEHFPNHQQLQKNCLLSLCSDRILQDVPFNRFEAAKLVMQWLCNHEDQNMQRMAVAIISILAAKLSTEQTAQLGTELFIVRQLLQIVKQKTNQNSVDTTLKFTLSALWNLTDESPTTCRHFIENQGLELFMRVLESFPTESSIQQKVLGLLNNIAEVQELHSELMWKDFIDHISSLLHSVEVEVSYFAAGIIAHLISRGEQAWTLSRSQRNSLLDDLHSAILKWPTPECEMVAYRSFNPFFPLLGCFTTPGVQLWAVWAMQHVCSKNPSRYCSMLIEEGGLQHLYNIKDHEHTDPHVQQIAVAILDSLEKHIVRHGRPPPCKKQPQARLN"}, "source": "paper PMC9741652", "about": "“CRL2^ZER1/ZYG11B recognizes small N-terminal residues for degradation” (Nature Communications, 2022)", "key": {"[1]": {"target": "ZER1 (residues 469–766) (human) (UniProt Q7Z7L7)", "assay": "ITC; peptide (0.5–1.5 mM) titrated into protein (50–70 μM) in the cell; 20 mM Tris-HCl pH 7.5, 150 mM NaCl; 16 °C; both purified"}, "[2]": {"target": "ZER1 (residues 469–766) W552A (human) (UniProt Q7Z7L7)", "assay": "condition: peptide 0.5–1.5 mM titrated into 50–70 μM protein; ITC; peptide (0.5–1.5 mM) titrated into protein (50–70 μM) in the cell; 20 mM Tris-HCl pH 7.5, 150 mM NaCl; 16 °C; both purified"}, "[3]": {"target": "ZER1 (residues 469–766) E600A (human) (UniProt Q7Z7L7)", "assay": "condition: peptide 0.5–1.5 mM titrated into 50–70 μM protein; ITC; peptide (0.5–1.5 mM) titrated into protein (50–70 μM) in the cell; 20 mM Tris-HCl pH 7.5, 150 mM NaCl; 16 °C; both purified"}, "[4]": {"target": "ZER1 (residues 469–766) N597A (human) (UniProt Q7Z7L7)", "assay": "condition: peptide 0.5–1.5 mM titrated into 50–70 μM protein; ITC; peptide (0.5–1.5 mM) titrated into protein (50–70 μM) in the cell; 20 mM Tris-HCl pH 7.5, 150 mM NaCl; 16 °C; both purified"}, "[5]": {"target": "ZER1 (residues 469–766) D556A (human) (UniProt Q7Z7L7)", "assay": "condition: peptide 0.5–1.5 mM titrated into 50–70 μM protein; ITC; peptide (0.5–1.5 mM) titrated into protein (50–70 μM) in the cell; 20 mM Tris-HCl pH 7.5, 150 mM NaCl; 16 °C; both purified"}, "[6]": {"target": "ZER1 (residues 469–766) N553A (human) (UniProt Q7Z7L7)", "assay": "ITC; peptide (0.5–1.5 mM) titrated into protein (50–70 μM) in the cell; 20 mM Tris-HCl pH 7.5, 150 mM NaCl; 16 °C; both purified"}, "[7]": {"target": "ZYG11B (residues 490–728) (UniProt Q9C0D3)", "assay": "condition: peptide 0.5–1.5 mM titrated into 50–70 μM protein; ITC; peptide (0.5–1.5 mM) titrated into protein (50–70 μM) in the cell; 20 mM Tris-HCl pH 7.5, 150 mM NaCl; 16 °C; both purified"}, "[8]": {"target": "ZER1 (residues 469–766) (human) (UniProt Q7Z7L7)", "assay": "condition: peptide 0.5–1.5 mM titrated into 50–70 μM protein; ITC; peptide (0.5–1.5 mM) titrated into protein (50–70 μM) in the cell; 20 mM Tris-HCl pH 7.5, 150 mM NaCl; 16 °C; both purified"}}, "note": "Results are given in words; binding and its absence hold for the method and conditions named. For some of these results: Binding calls can cover weak binding; strength is not graded here."}
{"binder": "SGRGKQGGKA", "note": "[free H2A peptide (sequence: …)]", "values": [{"measurement": "binding", "setting": "[1]", "result": "binds"}]}
{"binder": "SFLHVGQD", "note": "[SFLHVGQD peptide]", "values": [{"measurement": "binding", "setting": "[2]", "result": "no binding"}, {"measurement": "binding", "setting": "[3]", "result": "no binding"}, {"measurement": "binding", "setting": "[4]", "result": "no binding"}, {"measurement": "binding", "setting": "[5]", "result": "no binding"}, {"measurement": "binding", "setting": "[6]", "result": "binds"}]}
{"binder": "AFLHVGQD", "note": "[AFLHVGQD peptide]", "values": [{"measurement": "binding", "setting": "[2]", "result": "no binding"}, {"measurement": "binding", "setting": "[3]", "result": "no binding"}, {"measurement": "binding", "setting": "[4]", "result": "no binding"}, {"measurement": "binding", "setting": "[5]", "result": "no binding"}, {"measurement": "binding", "setting": "[6]", "result": "binds"}]}
{"binder": "CFLHVGQD", "note": "[CFLHVGQD peptide]", "values": [{"measurement": "binding", "setting": "[2]", "result": "no binding"}, {"measurement": "binding", "setting": "[3]", "result": "no binding"}, {"measurement": "binding", "setting": "[4]", "result": "no binding"}, {"measurement": "binding", "setting": "[5]", "result": "no binding"}, {"measurement": "binding", "setting": "[6]", "result": "binds"}]}
{"binder": "TFLHVGQD", "note": "[TFLHVGQD peptide]", "values": [{"measurement": "binding", "setting": "[2]", "result": "no binding"}, {"measurement": "binding", "setting": "[3]", "result": "no binding"}, {"measurement": "binding", "setting": "[4]", "result": "no binding"}, {"measurement": "binding", "setting": "[7]", "result": "no binding"}, {"measurement": "binding", "setting": "[5]", "result": "no binding"}, {"measurement": "binding", "setting": "[6]", "result": "binds"}]}
{"binder": "DFLHVGQD", "note": "[DFLHVGQD peptide]", "values": [{"measurement": "binding", "setting": "[7]", "result": "no binding"}, {"measurement": "binding", "setting": "[8]", "result": "no binding"}]}
{"binder": "EFLHVGQD", "note": "[EFLHVGQD peptide]", "values": [{"measurement": "binding", "setting": "[7]", "result": "no binding"}, {"measurement": "binding", "setting": "[8]", "result": "no binding"}]}
{"binder": "NFLHVGQD", "note": "[NFLHVGQD peptide]", "values": [{"measurement": "binding", "setting": "[7]", "result": "no binding"}, {"measurement": "binding", "setting": "[8]", "result": "no binding"}]}
{"binder": "QFLHVGQD", "note": "[QFLHVGQD peptide]", "values": [{"measurement": "binding", "setting": "[7]", "result": "no binding"}, {"measurement": "binding", "setting": "[8]", "result": "no binding"}]}
{"binder": "KFLHVGQD", "note": "[KFLHVGQD peptide]", "values": [{"measurement": "binding", "setting": "[7]", "result": "no binding"}, {"measurement": "binding", "setting": "[8]", "result": "no binding"}]}
{"binder": "RFLHVGQD", "note": "[RFLHVGQD peptide]", "values": [{"measurement": "binding", "setting": "[7]", "result": "no binding"}, {"measurement": "binding", "setting": "[8]", "result": "no binding"}]}
{"binder": "HFLHVGQD", "note": "[HFLHVGQD peptide]", "values": [{"measurement": "binding", "setting": "[7]", "result": "no binding"}, {"measurement": "binding", "setting": "[8]", "result": "no binding"}]}
{"binder": "VFLHVGQD", "note": "[VFLHVGQD peptide]", "values": [{"measurement": "binding", "setting": "[7]", "result": "no binding"}, {"measurement": "binding", "setting": "[8]", "result": "no binding"}]}
{"binder": "LFLHVGQD", "note": "[LFLHVGQD peptide]", "values": [{"measurement": "binding", "setting": "[7]", "result": "no binding"}, {"measurement": "binding", "setting": "[8]", "result": "no binding"}]}
{"binder": "IFLHVGQD", "note": "[IFLHVGQD peptide]", "values": [{"measurement": "binding", "setting": "[7]", "result": "no binding"}, {"measurement": "binding", "setting": "[8]", "result": "no binding"}]}
{"binder": "MFLHVGQD", "note": "[MFLHVGQD peptide]", "values": [{"measurement": "binding", "setting": "[7]", "result": "no binding"}, {"measurement": "binding", "setting": "[8]", "result": "no binding"}]}
{"binder": "FFLHVGQD", "note": "[FFLHVGQD peptide]", "values": [{"measurement": "binding", "setting": "[7]", "result": "no binding"}, {"measurement": "binding", "setting": "[8]", "result": "no binding"}]}
{"binder": "YFLHVGQD", "note": "[YFLHVGQD peptide]", "values": [{"measurement": "binding", "setting": "[7]", "result": "no binding"}, {"measurement": "binding", "setting": "[8]", "result": "no binding"}]}
{"binder": "WFLHVGQD", "note": "[WFLHVGQD peptide]", "values": [{"measurement": "binding", "setting": "[7]", "result": "no binding"}, {"measurement": "binding", "setting": "[8]", "result": "no binding"}]}
{"binder": "PFLHVGQD", "note": "[PFLHVGQD peptide]", "values": [{"measurement": "binding", "setting": "[7]", "result": "no binding"}, {"measurement": "binding", "setting": "[8]", "result": "no binding"}]}
